Experimental data as given in publication PMC10604625.

How the values were obtained:
[1] = biological target: glycine-alanine dipeptide repeat protein GA50, yeast two-hybrid fusion (human); assay: two-hybrid; Matchmaker GAL4 direct test: GA50 and SQOR (full length or fragments S1, S2, S3) in pGBKT7 or pGADT7, AH109 and Y187 mated; blue colonies on selective plates
[2] = biological target: glycine-alanine dipeptide repeat protein GA50, yeast two-hybrid fusion (human); assay: two-hybrid; yeast two-hybrid-based growth assay: diploid yeast in broth with serially diluted irisflorentin (IFT, up to 100 uM), spot assay on non-selective (SD/-Leu/-Trp) or selective (SD/-Ade/-His/-Leu/-Trp) plates, 30 C, 3 days, and OD600 in broth every 12 h for 48 h

B1: SQOR fragment S3 (301-450), yeast two-hybrid fusion (domain or fragment, UniProt Q9Y6N5 301-450)
chain: PDVLKTSPVADAAGWVDVDKETLQHRRYPNVFGIGDCTNLPTSKTAAAVAAQSGILDRTISVIMKNQTPTKKYDGYTSCPLVTGYNRVILAEFDYKAEPLETFPFDQSKERLSMYLMKADLMPFLYWNMMLRGYWGGPAFLRKLFHLGMS
For B1, the binding [1] was “binds” and the binding [2] was “binds”.

B2: SQOR fragment S1 (1-150), yeast two-hybrid fusion (domain or fragment, UniProt Q9Y6N5 1-150)
chain: MVPLVAVVSGPRAQLFACLLRLGTQQVGPLQLHTGASHAARNHYEVLVLGGGSGGITMAARMKRKVGAENVAIVEPSERHFYQPIWTLVGAGAKQLSSSGRPTASVIPSGVEWIKARVTELNPDKNCIHTDDDEKISYRYLIIALGIQLD
For B2, the binding [1] was “no binding”.

B3: SQOR fragment S2 (151-300), yeast two-hybrid fusion (domain or fragment, UniProt Q9Y6N5 151-300)
chain: YEKIKGLPEGFAHPKIGSNYSVKTVEKTWKALQDFKEGNAIFTFPNTPVKCAGAPQKIMYLSEAYFRKTGKRSKANIIFNTSLGAIFGVKKYADALQEIIQERNLTVNYKKNLIEVRADKQEAVFENLDKPGETQVISYEMLHVTPPMSP
In the case of B3, the binding [1] is reported as “no binding”.

Results are given in words; binding and its absence hold for the method and conditions named. Binding calls can cover weak binding; strength is not graded here. Tags and fused reporters may be left off the sequences shown.
